In the supplement of paper PMC8728848:
The list shows a part of the results.

Experiments:
Experiment in all cases: glycan array binding signal (z-score within array); higher = stronger binding
Settings in all cases: glycan notation: IUPAC condensed, linker removed
[1] = biological target: Gal(b1-3)[Fuc(a1-4)]GlcNAc
In short: (§1)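 Glycan array binding is given as a within-array Z-score, which can be read as non-binding when negative. The arrays, 3228 of them, came from the Consortium for Functional Glycomics database and were retained only where the protein sequence was available. Z-scores were averaged across arrays of the same protein sequence at different concentrations or buffers and across linkers.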

[2] = biological target: Gal(b1-3)[Fuc(a1-4)]GlcNAc(b1-2)Man(a1-3)[Gal(b1-3)[Fuc(a1-4)]GlcNAc(b1-2)Man(a1-6)]Man(b1-4)GlcNAc(b1-4)GlcNAc
In short: as §1

[3] = biological target: Gal(b1-3)[Fuc(a1-4)]GlcNAc(b1-2)Man(a1-3)[Gal(b1-3)[Fuc(a1-4)]GlcNAc(b1-2)Man(a1-6)]Man(b1-4)GlcNAc(b1-4)[Fuc(a1-6)]GlcNAc
In short: as §1

[4] = biological target: Gal(b1-3)[Fuc(a1-4)]GlcNAc(b1-3)Gal(b1-3)[Fuc(a1-4)]GlcNAc
In short: as §1

[5] = biological target: Gal(b1-3)[Fuc(a1-4)]GlcNAc(b1-3)Gal(b1-4)GlcNAc
In short: as §1

[6] = biological target: Gal(b1-3)[Fuc(a1-4)]GlcNAc(b1-3)Gal(b1-4)[Fuc(a1-3)]GlcNAc
In short: as §1

[7] = biological target: Gal(b1-3)[GlcNAc(b1-6)]GalNAc
In short: as §1

[8] = biological target: Gal(b1-3)[Neu5Ac(a2-6)]GalNAc
In short: as §1

[9] = biological target: Gal(b1-3)[Neu5Ac(a2-6)]GlcNAc(b1-6)Gal(b1-4)Glc
In short: as §1

[10] = biological target: Gal(b1-3)[Neu5Ac(b2-6)]GalNAc
In short: as §1

[11] = biological target: Gal(b1-4)GalNAc(a1-3)[Fuc(a1-2)]Gal(b1-4)GlcNAc
In short: as §1

[12] = biological target: Gal(b1-4)GalNAc(b1-3)[Fuc(a1-2)]Gal(b1-4)GlcNAc
In short: as §1

Gal(b1-4)Glc = biological target: Gal(b1-4)Glc
In short: as §1

Gal(b1-4)Glc6S = biological target: Gal(b1-4)Glc6S
In short: as §1

Gal(b1-4)GlcNAc = biological target: Gal(b1-4)GlcNAc
In short: as §1

[13] = biological target: Gal(b1-4)GlcNAc(a1-6)Gal(b1-4)GlcNAc
In short: as §1

[14] = biological target: Gal(b1-4)GlcNAc(b1-2)Man(a1-3)Man(b1-4)GlcNAc(b1-4)GlcNAc
In short: as §1

[15] = biological target: Gal(b1-4)GlcNAc(b1-2)Man(a1-3)[Gal(b1-4)GlcNAc(b1-2)Man(a1-6)]Man(b1-4)GlcNAc(b1-4)GlcNAc
In short: as §1

[16] = biological target: Gal(b1-4)GlcNAc(b1-2)Man(a1-3)[Gal(b1-4)GlcNAc(b1-2)Man(a1-6)]Man(b1-4)GlcNAc(b1-4)[Fuc(a1-6)]GlcNAc
In short: as §1

[17] = biological target: Gal(b1-4)GlcNAc(b1-2)Man(a1-3)[GlcNAc(b1-2)Man(a1-6)]Man(b1-4)GlcNAc(b1-4)GlcNAc
In short: as §1

[18] = biological target: Gal(b1-4)GlcNAc(b1-2)Man(a1-3)[Man(a1-6)]Man(b1-4)GlcNAc(b1-4)GlcNAc
In short: as §1

[19] = biological target: Gal(b1-4)GlcNAc(b1-2)Man(a1-6)Man(b1-4)GlcNAc(b1-4)GlcNAc
In short: as §1

[20] = biological target: Gal(b1-4)GlcNAc(b1-2)Man(a1-6)[GlcNAc(b1-2)Man(a1-3)]Man(b1-4)GlcNAc(b1-4)GlcNAc
In short: as §1

[21] = biological target: Gal(b1-4)GlcNAc(b1-2)Man(a1-6)[Man(a1-3)]Man(b1-4)GlcNAc(b1-4)GlcNAc
In short: as §1

[22] = biological target: Gal(b1-4)GlcNAc(b1-2)[Gal(b1-4)GlcNAc(b1-4)]Man(a1-3)[Gal(b1-4)GlcNAc(b1-2)Man(a1-6)]Man(b1-4)GlcNAc(b1-4)GlcNAc
In short: as §1

[23] = biological target: Gal(b1-4)GlcNAc(b1-2)[Gal(b1-4)GlcNAc(b1-4)]Man(a1-3)[Gal(b1-4)GlcNAc(b1-2)[Gal(b1-4)GlcNAc(b1-6)]Man(a1-6)]Man(b1-4)GlcNAc(b1-4)GlcNAc
In short: as §1

[24] = biological target: Gal(b1-4)GlcNAc(b1-3)Gal(b1-3)GlcNAc
In short: as §1

[25] = biological target: Gal(b1-4)GlcNAc(b1-3)Gal(b1-4)Glc
In short: as §1

[26] = biological target: Gal(b1-4)GlcNAc(b1-3)Gal(b1-4)GlcNAc
In short: as §1

[27] = biological target: Gal(b1-4)GlcNAc(b1-3)Gal(b1-4)GlcNAc(b1-3)Gal(b1-4)GlcNAc
In short: as §1

[28] = biological target: Gal(b1-4)GlcNAc(b1-3)Gal(b1-4)[Fuc(a1-3)]GlcNAc(b1-3)Gal(b1-4)[Fuc(a1-3)]GlcNAc
In short: as §1

[29] = biological target: Gal(b1-4)GlcNAc(b1-3)GalNAc
In short: as §1

[30] = biological target: Gal(b1-4)GlcNAc(b1-3)[Gal(b1-4)GlcNAc(b1-6)]Gal(b1-4)GlcNAc
In short: as §1

[31] = biological target: Gal(b1-4)GlcNAc(b1-3)[Gal(b1-4)GlcNAc(b1-6)]GalNAc
In short: as §1

[32] = biological target: Gal(b1-4)GlcNAc(b1-3)[GlcNAc(b1-6)]Gal(b1-4)GlcNAc
In short: as §1

[33] = biological target: Gal(b1-4)GlcNAc(b1-6)Gal(b1-4)GlcNAc
In short: as §1

[34] = biological target: Gal(b1-4)GlcNAc(b1-6)GalNAc
In short: as §1

[35] = biological target: Gal(b1-4)GlcNAc(b1-6)[Gal(b1-3)]GalNAc
In short: as §1

Gal3S(b1-3)GalNAc = biological target: Gal3S(b1-3)GalNAc
In short: as §1

Gal3S(b1-3)GlcNAc = biological target: Gal3S(b1-3)GlcNAc
In short: as §1

[36] = biological target: Gal3S(b1-3)[Fuc(a1-4)]GlcNAc
In short: as §1

Gal3S(b1-4)Glc = biological target: Gal3S(b1-4)Glc
In short: as §1

Gal3S(b1-4)Glc6S = biological target: Gal3S(b1-4)Glc6S
In short: as §1

Gal3S(b1-4)GlcNAc = biological target: Gal3S(b1-4)GlcNAc
In short: as §1

Gal3S(b1-4)GlcNAc6S = biological target: Gal3S(b1-4)GlcNAc6S
In short: as §1

B1: AcfC (Vibrio cholerae), Q57410 (protein)
chain: MKSKNRFLLISLLSFSTSVFADVNLYGPGGPHVPLIKVAESFEKSQSKRVNITFGPQATWNDKAKKNADILFGASEHSALAIAEGHSERFSKFNIHPVFMREAIILVKKGNPKNIKGMADLLKPGIGIVVNDGAGVSNTSGTAVWEDSVGRMKNVEKLQAFRSNIHVFAPNSGSARKAFVDGEDIDAWITWVDWAIANPTIGDMVRMEDEYRIYRDFNVVLAKNPSSEAIDFFDYLTKSKDAEAIFQHYGWFK
[1]
  glycan array binding signal (z-score): 0.672
[2]
  glycan array binding signal (z-score): 1.93
[3]
  glycan array binding signal (z-score): 1.45
[4]
  glycan array binding signal (z-score): 0.16
[5]
  glycan array binding signal (z-score): -1.5
[6]
  glycan array binding signal (z-score): -0.436
[7]
  glycan array binding signal (z-score): -0.679
[8]
  glycan array binding signal (z-score): 0.043
[9]
  glycan array binding signal (z-score): -0.622
[10]
  glycan array binding signal (z-score): -0.095
[11]
  glycan array binding signal (z-score): 0.656
[12]
  glycan array binding signal (z-score): -0.093
Gal(b1-4)Glc
  glycan array binding signal (z-score): -0.89
Gal(b1-4)Glc6S
  glycan array binding signal (z-score): 0.19
Gal(b1-4)GlcNAc
  glycan array binding signal (z-score): -1.08
[13]
  glycan array binding signal (z-score): 0.616
[14]
  glycan array binding signal (z-score): -0.402
[15]
  glycan array binding signal (z-score): 3
[16]
  glycan array binding signal (z-score): 1.29
[17]
  glycan array binding signal (z-score): 0.173
[18]
  glycan array binding signal (z-score): -0.107
[19]
  glycan array binding signal (z-score): 1.19
[20]
  glycan array binding signal (z-score): 0.212
[21]
  glycan array binding signal (z-score): -0.637
[22]
  glycan array binding signal (z-score): 1.71
[23]
  glycan array binding signal (z-score): 0.947
[24]
  glycan array binding signal (z-score): 0.193
[25]
  glycan array binding signal (z-score): 0.082
[26]
  glycan array binding signal (z-score): -1.1
[27]
  glycan array binding signal (z-score): -0.41
[28]
  glycan array binding signal (z-score): 1.46
[29]
  glycan array binding signal (z-score): -0.583
[30]
  glycan array binding signal (z-score): -0.494
[31]
  glycan array binding signal (z-score): 0.236
[32]
  glycan array binding signal (z-score): -0.485
[33]
  glycan array binding signal (z-score): -1.07
[34]
  glycan array binding signal (z-score): 0.912
[35]
  glycan array binding signal (z-score): -0.705
Gal3S(b1-3)GalNAc
  glycan array binding signal (z-score): 0.527
Gal3S(b1-3)GlcNAc
  glycan array binding signal (z-score): -0.451
[36]
  glycan array binding signal (z-score): -0.184
Gal3S(b1-4)Glc
  glycan array binding signal (z-score): -1.26
Gal3S(b1-4)Glc6S
  glycan array binding signal (z-score): 0.515
Gal3S(b1-4)GlcNAc
  glycan array binding signal (z-score): 0.272
Gal3S(b1-4)GlcNAc6S
  glycan array binding signal (z-score): 0.661
